Results: publication PMC3789979, “Recruitment of a Cytoplasmic Chaperone Relay by the A2A Adenosine Receptor” (The Journal of Biological Chemistry, 2013)

By UniProt entry, the sequences of proteins in these tests, tags left out. Residues count along the entry.
UniProt P27824, residues 21-592: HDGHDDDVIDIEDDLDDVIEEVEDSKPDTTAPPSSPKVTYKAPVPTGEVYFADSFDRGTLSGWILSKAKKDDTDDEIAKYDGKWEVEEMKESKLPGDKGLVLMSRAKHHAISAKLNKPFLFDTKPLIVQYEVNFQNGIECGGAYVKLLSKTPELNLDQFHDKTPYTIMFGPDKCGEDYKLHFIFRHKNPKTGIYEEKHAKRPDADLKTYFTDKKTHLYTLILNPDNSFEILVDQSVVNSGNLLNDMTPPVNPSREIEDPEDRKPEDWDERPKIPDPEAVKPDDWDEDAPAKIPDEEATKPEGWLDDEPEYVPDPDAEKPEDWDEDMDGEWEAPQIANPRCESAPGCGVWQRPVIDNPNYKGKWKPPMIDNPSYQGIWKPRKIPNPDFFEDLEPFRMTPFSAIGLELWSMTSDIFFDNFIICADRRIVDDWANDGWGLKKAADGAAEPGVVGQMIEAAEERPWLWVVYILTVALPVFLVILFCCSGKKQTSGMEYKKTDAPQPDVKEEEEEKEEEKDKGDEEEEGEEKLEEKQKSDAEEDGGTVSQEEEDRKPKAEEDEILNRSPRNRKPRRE

Tests used:
[1] = target: FSt2-N-A2A receptor (human) (UniProt P29274); test: affinity purification with mass spectrometry; tandem affinity purification of FSt2-N-A2A receptor from DDM extracts of HEK293 membranes: anti-FLAG-agarose, elution with FLAG peptide, Strep-Tactin-Sepharose; in-solution tryptic digest, nano-LC-MS/MS; control cells processed in parallel
[2] = target: G2S-N-A2A receptor (human) (UniProt P29274); test: affinity purification with mass spectrometry; tandem affinity purification of G2S-N-A2A receptor from DDM extracts of HEK293 membranes: IgG-agarose 2 h 4 °C, TEV protease elution, streptavidin beads 2 h 4 °C, elution with 2 mM biotin and 6 M urea; in-solution tryptic digest, nano-LC-MS/MS; control cells processed in parallel

Heat-shock 70-kDa protein 1A (HSP70.1) (from UniProt P0DMV8 1-641)
binding [1]: binds
binding [2]: binds

Endoplasmin precursor (94-kDa glucose-regulated protein; gp96 homolog, tumor rejection antigen 1) (from UniProt P14625 22-803)
binding [1]: binds
binding [2]: binds

HSP90β (from UniProt P08238 1-724)
binding [1]: no binding
binding [2]: no binding

Heat-shock protein 90α (from UniProt P07900 1-732)
binding [1]: binds
binding [2]: binds

Calreticulin precursor (CRP55) (calregulin, ERp60, grp60) (from UniProt P27797 18-417)
binding [1]: binds
binding [2]: binds

Calnexin precursor (major histocompatibility complex class I antigen- binding protein p88, p90, IP90) (from UniProt P27824 21-592)
binding [1]: binds
binding [2]: binds

B1: Protein-disulfide isomerase A6 precursor (protein disulfide-isomerase P5) (protein, UniProt Q15084 20-440)
chain: LYSSSDDVIELTPSNFNREVIQSDSLWLVEFYAPWCGHCQRLTPEWKKAATALKDVVKVGAVDADKHHSLGGQYGVQGFPTIKIFGSNKNRPEDYQGGRTGEAIVDAALSALRQLVKDRLGGRSGGYSSGKQGRSDSSSKKDVIELTDDSFDKNVLDSEDVWMVEFYAPWCGHCKNLEPEWAAAASEVKEQTKGKVKLAAVDATVNQVLASRYGIRGFPTIKIFQKGESPVDYDGGRTRSDIVSRALDLFSDNAPPPELLEIINEDIAKRTCEEHQLCVVAVLPHILDTGAAGRNSYLEVLLKLADKYKKKMWGWLWTEAGAQSELETALGIGGFGYPAMAAINARKMKFALLKGSFSEQGINEFLRELSFGRGSTAPVGGGAFPTIVEREPWDGRDGELPVEDDIDLSDVELDDLGKDEL
binding [1]: binds
binding [2]: binds

Results are given in words; binding and its absence hold for the method and conditions named. In cells and extracts the contact can be indirect. These calls come from enrichment with a bait or labelling near it, and not all partners need be listed. A no says only that the protein was not detected with the bait.
